From article PMC3750193, “Disassembly of All SNARE Complexes by N-Ethylmaleimide-sensitive Factor (NSF) Is Initiated by a Conserved 1:1 Interaction between α-Soluble NSF Attachment Protein (SNAP) and SNARE Complex*^([image sbox.jpg])” (The Journal of Biological Chemistry, 2013)
These are yes or no findings as the source states them, for the method shown. Some entries that bind do so weakly or less than the wild type.

Protein sequences, listed by entry. Tags and fused reporters are not part of them. Lines headed by an entry give the natural chain unless they say otherwise; changes in a name come on top. Residues count along the entry.
UniProt Q9JHW5, 119-190: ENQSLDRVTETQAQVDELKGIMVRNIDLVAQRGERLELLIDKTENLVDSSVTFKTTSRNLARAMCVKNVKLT
UniProt Q9JHW5, whole entry, looked up, stated change not applied: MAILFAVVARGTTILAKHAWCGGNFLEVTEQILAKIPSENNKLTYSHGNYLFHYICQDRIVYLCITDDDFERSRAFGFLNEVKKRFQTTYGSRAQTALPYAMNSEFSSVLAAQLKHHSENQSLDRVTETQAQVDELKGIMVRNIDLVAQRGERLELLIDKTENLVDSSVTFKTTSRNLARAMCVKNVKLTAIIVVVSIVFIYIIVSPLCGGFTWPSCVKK
UniProt P32851, whole entry, looked up, stated change not applied: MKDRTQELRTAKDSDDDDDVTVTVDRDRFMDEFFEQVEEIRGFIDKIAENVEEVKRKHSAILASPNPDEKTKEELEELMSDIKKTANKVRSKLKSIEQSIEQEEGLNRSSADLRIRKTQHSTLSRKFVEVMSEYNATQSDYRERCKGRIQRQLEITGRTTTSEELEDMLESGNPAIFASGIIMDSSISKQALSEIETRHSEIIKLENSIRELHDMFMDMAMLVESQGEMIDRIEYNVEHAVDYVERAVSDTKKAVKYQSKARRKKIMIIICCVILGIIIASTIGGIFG

Key:
[1] = molecular target: VAMP7(1–190)-C21S/C56V (rat) (UniProt Q9JHW5); assay: co-purification of coexpressed proteins; coexpressed in E. coli BL21(DE3), 12 h at 25 °C; lysate on Ni-NTA agarose, washed, eluted with 300 mM imidazole, then Superdex 200 gel filtration; monitored by SDS-PAGE, mass spectrometry, CD and MALS
[2] = molecular target: VAMP7(119–190) (rat) (UniProt Q9JHW5); assay: as above

Substance	binding [1]	binding [2]
syntaxin1A(1–265)-C145S/S249C/K253C (from UniProt P32851 1-265) (domain or fragment)	binds	–
syntaxin1A(191–265)-C145S/S249C/K253C (from UniProt P32851 191-265) (domain or fragment)	–	binds
